From article PMC12501288 come the findings set out here.

Chains of the proteins cited; added tags and fusions are not shown.
UniProt P01106: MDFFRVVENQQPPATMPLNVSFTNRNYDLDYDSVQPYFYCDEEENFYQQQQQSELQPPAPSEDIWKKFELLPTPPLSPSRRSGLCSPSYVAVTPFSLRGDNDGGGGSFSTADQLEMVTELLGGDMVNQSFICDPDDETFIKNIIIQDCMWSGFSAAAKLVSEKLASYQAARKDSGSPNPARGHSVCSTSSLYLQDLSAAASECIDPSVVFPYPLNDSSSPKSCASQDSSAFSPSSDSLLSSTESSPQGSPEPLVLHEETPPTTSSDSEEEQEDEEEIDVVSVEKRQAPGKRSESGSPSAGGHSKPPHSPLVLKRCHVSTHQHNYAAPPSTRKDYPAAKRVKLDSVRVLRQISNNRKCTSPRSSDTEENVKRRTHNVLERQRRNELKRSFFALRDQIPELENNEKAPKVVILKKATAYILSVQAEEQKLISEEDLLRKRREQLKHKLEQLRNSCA
UniProt P01108: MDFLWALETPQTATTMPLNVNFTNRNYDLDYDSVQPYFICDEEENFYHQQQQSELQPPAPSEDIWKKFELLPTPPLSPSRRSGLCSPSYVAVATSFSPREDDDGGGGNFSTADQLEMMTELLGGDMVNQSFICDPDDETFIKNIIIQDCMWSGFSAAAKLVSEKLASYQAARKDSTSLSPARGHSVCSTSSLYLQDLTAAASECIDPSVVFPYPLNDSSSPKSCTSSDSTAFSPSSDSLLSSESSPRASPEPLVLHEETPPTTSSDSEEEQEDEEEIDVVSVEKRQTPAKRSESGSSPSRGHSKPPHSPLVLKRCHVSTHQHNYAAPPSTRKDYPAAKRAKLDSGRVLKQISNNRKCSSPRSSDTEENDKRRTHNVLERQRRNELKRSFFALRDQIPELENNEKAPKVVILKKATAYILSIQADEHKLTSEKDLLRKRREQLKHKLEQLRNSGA
UniProt Q969H0: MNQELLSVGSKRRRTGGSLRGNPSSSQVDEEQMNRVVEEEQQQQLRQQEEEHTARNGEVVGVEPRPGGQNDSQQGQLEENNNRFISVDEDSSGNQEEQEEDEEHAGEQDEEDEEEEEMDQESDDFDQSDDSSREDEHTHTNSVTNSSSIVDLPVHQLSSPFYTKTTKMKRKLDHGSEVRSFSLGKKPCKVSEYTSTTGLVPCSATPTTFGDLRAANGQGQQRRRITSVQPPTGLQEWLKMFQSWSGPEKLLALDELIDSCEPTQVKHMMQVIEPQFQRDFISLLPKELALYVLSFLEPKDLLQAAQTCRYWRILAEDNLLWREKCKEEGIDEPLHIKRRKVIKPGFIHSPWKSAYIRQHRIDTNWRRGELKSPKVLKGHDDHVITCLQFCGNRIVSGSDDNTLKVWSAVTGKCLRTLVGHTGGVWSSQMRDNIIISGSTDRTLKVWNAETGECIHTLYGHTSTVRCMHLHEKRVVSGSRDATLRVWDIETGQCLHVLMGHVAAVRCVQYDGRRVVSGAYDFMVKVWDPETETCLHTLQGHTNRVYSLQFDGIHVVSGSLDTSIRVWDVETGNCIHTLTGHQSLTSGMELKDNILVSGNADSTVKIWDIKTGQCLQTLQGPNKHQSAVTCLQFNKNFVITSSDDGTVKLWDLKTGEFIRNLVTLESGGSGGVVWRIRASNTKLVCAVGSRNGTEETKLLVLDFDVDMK
UniProt Q13950: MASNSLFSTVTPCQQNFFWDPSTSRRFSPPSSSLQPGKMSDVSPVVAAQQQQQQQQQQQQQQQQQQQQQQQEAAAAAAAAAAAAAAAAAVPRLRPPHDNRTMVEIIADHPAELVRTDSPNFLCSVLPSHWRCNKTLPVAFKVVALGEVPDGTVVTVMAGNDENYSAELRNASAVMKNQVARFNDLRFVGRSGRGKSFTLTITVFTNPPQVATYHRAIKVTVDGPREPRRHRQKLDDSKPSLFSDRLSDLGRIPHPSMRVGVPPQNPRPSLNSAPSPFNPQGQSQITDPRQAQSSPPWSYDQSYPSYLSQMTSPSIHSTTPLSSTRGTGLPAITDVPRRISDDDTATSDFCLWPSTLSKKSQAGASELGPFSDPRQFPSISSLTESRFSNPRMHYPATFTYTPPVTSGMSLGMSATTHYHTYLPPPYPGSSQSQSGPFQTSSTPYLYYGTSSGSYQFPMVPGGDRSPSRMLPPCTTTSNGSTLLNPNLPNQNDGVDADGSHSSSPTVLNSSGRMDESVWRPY
UniProt Q08775: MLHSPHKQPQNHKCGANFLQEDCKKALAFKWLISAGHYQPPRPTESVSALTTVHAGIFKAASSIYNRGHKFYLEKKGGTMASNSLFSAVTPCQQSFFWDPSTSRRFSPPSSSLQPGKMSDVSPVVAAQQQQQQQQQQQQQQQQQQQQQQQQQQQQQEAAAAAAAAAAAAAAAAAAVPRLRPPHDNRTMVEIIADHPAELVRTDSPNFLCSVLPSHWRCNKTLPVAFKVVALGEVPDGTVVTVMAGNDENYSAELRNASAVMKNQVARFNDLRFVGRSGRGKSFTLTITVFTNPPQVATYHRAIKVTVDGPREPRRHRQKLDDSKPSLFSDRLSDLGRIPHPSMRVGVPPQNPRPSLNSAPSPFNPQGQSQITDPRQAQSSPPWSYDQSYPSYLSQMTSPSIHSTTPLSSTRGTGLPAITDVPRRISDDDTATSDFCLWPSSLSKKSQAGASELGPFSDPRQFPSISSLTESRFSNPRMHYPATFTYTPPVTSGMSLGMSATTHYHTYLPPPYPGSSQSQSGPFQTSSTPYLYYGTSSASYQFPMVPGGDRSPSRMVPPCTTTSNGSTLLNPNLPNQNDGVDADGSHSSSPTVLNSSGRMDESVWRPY

Results are given in words; binding and its absence hold for the method and conditions named. For some assays here: Binding seen in cells or lysates may run through a third protein. Some binding calls cover weakened binding; strength is not graded here.

Assay [1] concerns the target HA-tagged full-length c-Myc (not stated (human or mouse cDNA cloned)) (UniProt P01106). In words: co-IP; 293T cells co-transfected with HA-tagged c-Myc and a gradient dose of Flag-tagged RUNX2 or vector control; RUNX2 and FBXW7 found with c-Myc detected by immunoblot. In general terms: A western blot detects proteins with antibodies after separation by electrophoresis.

For assay [2] the target is unchanged. Nature of the assay: co-IP; 293T cells co-transfected with Flag-tagged RUNX2 (full length or deletion mutants) and HA-tagged c-Myc (full length or deletion mutants); lysed in IP buffer, antibody overnight at 4 °C, protein A/G beads, immunoblot.
Assay [3] addresses endogenous c-Myc of 4T1 cells (mouse (endogenous in 4T1)) (UniProt P01108). In words: co-IP; endogenous RUNX2 and c-Myc in MDA-MB-231 and 4T1 cells; IP buffer, antibody overnight at 4 °C, protein A/G beads, immunoblot.
The target of assay [4] is endogenous c-Myc of MDA-MB-231 cells (human (endogenous in MDA-MB-231)) (UniProt P01106). The description is as above.
The target of a further assay is His-fused c-Myc protein (UniProt P01106). Nature of the assay: pull-down; His pull-down: 2 μg His-fused c-Myc, Flag-fused RUNX2 and Ni-NTA beads in 50 μL IP buffer with protease inhibitor cocktail, 4 °C, 6 h; Coomassie staining and immunoblot; both purified.

Consider “F-box/WD repeat-containing protein 7 (FBXW7) of 293T cells (from UniProt Q969H0 1-707)”, for which the binding result in assay [1] is given as “binds”.
For the substance “Flag-tagged full-length RUNX2 (Runt-related transcription factor 2) (from UniProt Q13950 1-521)”, the binding entry in assay [2] is on record as “binds”.
On to “endogenous RUNX2 of 4T1 cells (from UniProt Q08775 1-607)”, for which, in assay [3], the binding result was “binds”.
As for “endogenous RUNX2 of MDA-MB-231 cells (from UniProt Q13950 1-521)”, the binding entry in assay [4] is “binds”.
“recombinant Flag-fused RUNX2 protein (from UniProt Q13950 1-521)”: in the assay with His-fused c-Myc protein, the binding entry is “binds”.
